{"source": "patent US20220324958A1", "about": "“ANTI-INFLAMMATORY PEPTIDES, PHARMACEUTICAL COMPOSITION CONTAINING SUCH PEPTIDES, AND USES THEREOF” (INSTITUTO BUTANTAN, priority 2019, published 2022)", "key": {"[1]": {"system": "osteoclast precursors (PBMNC)", "test": "Osteoclast differentiation model, TRAP+ cell count", "type": "cell-based, human", "conditions": "peptide 200 nM added on day four to osteoclast precursor culture, 15 days; compared to positive control (CTRL)", "procedure": "A. Positive differentiation controls. B. Influence of synthetic peptides (200 nM) on osteoclast differentiation. C. Negative differentiation control. αMEM—Minimum Essential Medium Eagle Alpha Modification; FBS—fetal bovine serum; TRANCE—Tumor Necrosis Factor (TNF)-related Activation-induced Cytokine; M-CSF—Macrophage Colony-Stimulating Factor; TGF-β1—Transforming growth factor beta-1.\nThe present invention includes the culture of monocytic cells of human leukemia (THP-1), osteoclast, primary human blood-derived mononuclear cells (PBMNC), and human chondrocytes (NHAC-kn).\nNegative differentiation controls. B. Influence of synthetic peptides (200 nM) on osteoclast differentiation.\nPBMNC were isolated and, immediately after, plating inductive culture medium (composed of Alpha-MEM+10% FBS+MCSF [25 ng/mL]+RANKL [50 ng/mL]+TGF-beta 1 [5 ng/mL]+Dexamethasone [1 μM]) was added for 15 days. On day four, the L. obliqua venom at a concentration of […] or toxins at a concentration of 200 nM, each individually, was added to the osteoclast precursor culture and these culture conditions were maintained until the end of the differentiation. Then, the cells were fixed and stained with tartrate-resistant acid phosphatase (TRAP)."}, "[2]": {"system": "THP-1 cells differentiated into macrophages", "test": "LPS-induced cytokine production in THP-1-derived macrophages (Multiplex)", "type": "cell-based, human", "conditions": "macrophages derived from THP-1", "procedure": "THP-1 cells differentiated into macrophages were induced with LPS (10 ng/mL) and, one hour later, treated with synthetic peptides at a concentration of 200 nM. Dexamethasone (10 μM), an inflammatory inhibitor, was used as a control. After 24 hours, the culture medium was collected to measure the IL-1β (A), IL-6 (B), TNF-α (C), and IL-10 cytokines using a Multiplex kit. * p<0.05 vs. LPS; ** p<0.01 vs. LPS; *** p<0.005 vs. LPS;\nTHP-1 cells differentiated into macrophages were induced with LPS (10 ng/mL) and, one hour later, treated with L4 or D3 peptide (0.05 μM, 0.2 μM, 1 μM, and 2 μM). After 24 hours, the culture medium was collected and TNF-alpha, IL-6, IL-23, and IL-8 were measured by Multiplex. (A) L4 peptide. (B) D3 peptide;\nMacrophages were obtained from the differentiation of monocytes THP-1. […]\nThe kit is based on Luminex® xMAP® technology that allows the simultaneous analysis of various cytokines. […] Each microsphere was individually identified and the results were analyzed using Luminex® Xponent® 4.2 acquisition software.\nTHP-1 cells differentiated into macrophages were induced with LPS (10 ng/mL) and, one hour later, treated with synthetic peptides, […] (inflammation inhibitor, 10 μM). After 24 hours, the culture medium was collected and IL-1β (A), IL-6 (B), TNF-α (C), and IL-10 were measured by Multiplex. * p<0.05 vs. LPS; ** p<0.01 vs. LPS; *** p<0.005 vs. LPS. […]"}, "[3]": {"system": "neurons obtained from SHSY5Y cells", "test": "Anti-nociceptive/anti-inflammatory model, neurons stimulated with glycated collagen (GC): substance P and β-endorphin in supernatant", "type": "cell-based", "conditions": "peptide 200 nM incubated 3 hours after GC (100 μg/mL)", "procedure": "ANOVA and Dunnet * p<0.05; ** p<0.01 compared to glycated collagen (GC);\nANOVA and Dunnet * p<0.05 ** p<0.01, *** p<0.001 compared with GC;\nThe differentiation process consists of 6 stages distributed over 7 days. On the first day of the differentiation protocol (day 0), cells were seeded in collagen-coated plates. On days 1, 3, and 4 the culture medium was removed, and the differentiation medium containing 2% fetal bovine serum (FBS) and retinoic acid (RA) 10 μM) was added. On day 5, the medium was removed and the culture was incubated with culture medium and brain-derived neurotrophic factor (BDNF) (50 ng/mL). On day 7 of the differentiation process, differentiated neurons are fully ready for use (Agholme et al., 2010, with some modifications).\n7×10^3 neurons/well were incubated with 10 μM of morphine (inhibitory response control) or peptides (200 nM and 500 nM) 3 hours before or 3 hours after incubation with IL-1β (10 ng/mL) or glycated collagen (GC) (100 μg/mL) (both positive controls for the release of substance P). After 24 hours of incubation, the cell viability assay and the detection of substance P and β-endorphin in the supernatant were performed. Multiplex with magnetic spheres (MILLIPLEX® MAP Magnetic Bead Panel)\nANOVA and Dunnet * p<0.05; ** p<0.01 compared to GC.\nANOVA and Dunnet * p<0.05 ** p<0.01, *** p<0.001 compared to GC."}, "[4]": {"system": "human chondrocytes (NHAC-kn)", "test": "Pro-inflammatory model of chondrocytes treated with IL-1β, cytokine release (Multiplex)", "type": "cell-based", "conditions": "chondrocytes treated with IL-1β (1 ng/mL)", "procedure": "Values were obtained from each analyte in pg/mL from treatment with the peptides in the presence of IL-1β (1 ng/mL). The data are presented as the mean±MSE (* p<0.05 when compared to the control with IL-1β, test t, n=3).\n(B) Chondrocytes were pretreated for 1 hour with IL-1β (1 ng/mL) before the addition of peptides (200 nM, 500 nM, and 1.25 μM) and an additional incubation of 24 hours before collecting the supernatants.\nThe primary human chondrocytes used in this assay were purchased from Lonza: Normal Human Articular Primary chondrocytes (NHAC-Kn, #CC-2550, Lot 8F3336). Chondrocyte cell culture was performed in bottles (Sarstedt T175 and T75). The cells were cultivated in DMEM culture medium (Sigma) supplemented with 10% fetal bovine serum (FBS) (Sigma), incubated in an oven at 37° C. and 5% CO2, and cultures were used in the sixth passage. The culture medium was changed every two days until the culture reached 80% confluence.\nThe identification and quantitative analysis of the cytokines present in the peptide treatment supernatant were performed using the Luminex xMAP Milliplex MAP Human Cytokine/Chemokine Magnetic Bead Panel Catalog #HCYTOMAG-60K technology, according to the manufacturer's instructions.\nValues were obtained from each analyte in pg/mL from treatment with the peptides in the presence of IL-1β (1 ng/mL). […]"}}, "note": "Not every detail of the peptide structures is certain; ends, links or a residue may be inferred. No end group written: not given here.", "data": [{"sequence": "YAIGYSCKDYK [P4, YAIGYSCKDYK]", "values": [{"measurement": "number of TRAP+ cells", "setting": "[1]", "result": "no statistically significant difference"}, {"measurement": "LPS-stimulated activation of macrophages", "setting": "[2]", "result": "inhibit part of the LPS-stimulated activation"}, {"measurement": "production of Substance P", "setting": "[3]", "result": "significantly inhibited"}, {"measurement": "production of β-endorphin", "setting": "[3]", "result": "increased"}, {"measurement": "anti-inflammatory activity (release of G-CSF, GM-CSF, IL-6, IL-8, MCP-1, TNF-α)", "setting": "[4]", "result": "anti-inflammatory activity"}]}]}
